PubChem BioAssay AID1259259 | Sanger Institute, 2017

Assay: 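Synthetic lethal kinase partners of anchor drugs in colorectal cancer cells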 (primary screen)
Cells: SW1463 human colorectal cancer cells
Reagents: siRNA pool against human genes
Treatment: DMSO vehicle, or one anchor drug: BYL719 at 1 µM, cetuximab at 5 µg/ml, or trametinib at 10 nM
Detection: 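Viability as fraction of control pool 2 (non-targeting), replicate mean; knock-down robust z-score without any drug; synergy score averaged for each anchor drug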
Direction: robust z-score, knock-down alone: higher = more viable cells after knock-down; viability, knock-down alone: higher = more viable cells
Units: viability, knock-down alone in fraction of control
Active means: 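a robust z-score under -3 for knock-down with no drug marks the gene as essential, meaning viability loss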
Calls: active = essential: viability loss from knock-down alone; inactive = no change from knock-down alone
Shown is one part, drawn at random, of 794 deposited reagents. In the full data, 9 (1.1%) got an active call. 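Calls rest on knock-down alone, not drug synergy; viability values seem capped at 1.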 Further read-outs or replicates are left out here. The record does not give: the amount of reagent, the time to read-out.

TGFBR2 showed robust z-score, knock-down alone 0.52; viability, knock-down alone 0.961; inactive. Silencing of NUCKS1 gave: robust z-score, knock-down alone -0.154; viability, knock-down alone 0.918; inactive. SRPK3 showed robust z-score, knock-down alone 0.228; viability, knock-down alone 0.942; inactive. For EPHA1 the deposit lists robust z-score, knock-down alone -0.299; viability, knock-down alone 0.908; inactive. VRK1 scored robust z-score, knock-down alone -0.511; viability, knock-down alone 0.895; inactive. After knock-down of TRIB2, the record shows robust z-score, knock-down alone -0.876; viability, knock-down alone 0.871; inactive.

CAMKV scored robust z-score, knock-down alone -0.652; viability, knock-down alone 0.886; inactive. With knock-down of TNIK, the screen gave robust z-score, knock-down alone 0.213; viability, knock-down alone 0.941; inactive. With knock-down of MST1R, the record shows robust z-score, knock-down alone -0.54; viability, knock-down alone 0.893; inactive. NF1 scored robust z-score, knock-down alone 0.732; viability, knock-down alone 0.975; inactive. Depletion of CDKN1C gave: robust z-score, knock-down alone 0.0435; viability, knock-down alone 0.93; inactive. Silencing of RELA came out at: robust z-score, knock-down alone 0.598; viability, knock-down alone 0.966; inactive.

For SPEG the deposit lists robust z-score, knock-down alone 1.13; viability, knock-down alone 1; inactive. After knock-down of EPHB1, the record shows robust z-score, knock-down alone -0.0503; viability, knock-down alone 0.924; inactive. Knock-down of PHKG2 came out at: robust z-score, knock-down alone 0.407; viability, knock-down alone 0.954; inactive. PIP4K2B gave robust z-score, knock-down alone 0.317; viability, knock-down alone 0.948; inactive. AK1 showed robust z-score, knock-down alone 1.13; viability, knock-down alone 1; inactive. For PDGFRL the deposit lists robust z-score, knock-down alone 0.333; viability, knock-down alone 0.949; inactive.

Depletion of MAP3K19 came out at: robust z-score, knock-down alone -0.0777; viability, knock-down alone 0.923; inactive. After knock-down of AGK the results were robust z-score, knock-down alone 0.284; viability, knock-down alone 0.946; inactive. After knock-down of BRAF the results were robust z-score, knock-down alone -0.665; viability, knock-down alone 0.885; inactive. For PAK5, the entry reads robust z-score, knock-down alone -1.03; viability, knock-down alone 0.861; inactive. ERBB2 showed robust z-score, knock-down alone 0.195; viability, knock-down alone 0.94; inactive. Silencing of TSKS came out at: robust z-score, knock-down alone 0.825; viability, knock-down alone 0.981; inactive.

PRKDC showed robust z-score, knock-down alone -0.895; viability, knock-down alone 0.87; inactive. After knock-down of LYN, the screen gave robust z-score, knock-down alone -0.219; viability, knock-down alone 0.914; inactive. MAPK13 scored robust z-score, knock-down alone 0.432; viability, knock-down alone 0.955; inactive. LATS2 showed robust z-score, knock-down alone 1.13; viability, knock-down alone 1; inactive.
